According to patent US20150183827A1 (Hoffmann-La Roche Inc., priority 2012, published 2015):

Assay: peptide made by a vendor (Fmoc solid-phase peptide synthesis; Rink Amide MBHA resin; DIC/HOBt)
Conditions: whole synthesis, scale 0.15 mmol
For “FITC-6Ahx-VKIWFQNRRVRWRKR-NH2 (FITC-6Ahx N-terminus, C-terminal amide)”, the isolated mass was 60 mg and the isolated yield was 12%.
Substance FITC-6Ahx-PKWTRPLLPFWKRYL-NH2 has an isolated mass of 50 mg and an isolated yield of 11%.
In the case of “FITC-6Ahx-LLPQWPRIRHIKLLR-NH2 (FITC-6Ahx N-terminus; C-terminal amide)”, the isolated mass is reported as 90 mg and the isolated yield is reported as 21%.
With “FITC-6Ahx-MRMIRFRKKIPYLRY-NH2 (FITC-6Ahx N-terminus; C-terminal amide)” the isolated mass was 55 mg and the isolated yield was 11%.
FITC-6Ahx-SKIVRVIFRYAKWLF-NH2 gave an isolated mass of 25 mg and an isolated yield of 6%.
FITC-6Ahx-RLWEFYKLYKRRHRV-NH2 showed an isolated mass of 90 mg and an isolated yield of 18%.
“FITC-6Ahx-KVFSPKKKMEFFLLF-NH2 (FITC-6Ahx N-terminus; C-terminal amide)” gave an isolated mass of 50 mg and an isolated yield of 12%.
For FITC-6Ahx-RWFAFKMMMAKKWAK-NH2, the isolated mass was 20 mg and the isolated yield was 4%.
Work on FITC-6Ahx-KFFKLKHFILNILKQ-NH2 yielded an isolated mass of 80 mg and an isolated yield of 19%.

Same assay, conditions: whole synthesis, scale 0.15 mmole
FITC-6Ahx-MVLKFFRWLFRLLFR-NH2 showed an isolated mass of 80 mg and an isolated yield of 18%.

Same assay, conditions: whole synthesis, scale 0.2 mmol
FITC-6Ahx-YLKFIPLKRAIWLIK-NH2 showed an isolated mass of 15 mg and an isolated yield of 3.1%.
FITC-6Ahx-MPKFKQRRRKLKAKAERLFK-NH2 gave an isolated mass of 75 mg and an isolated yield of 12.2%.
In the case of FITC-6Ahx-LRLLHRRQKRIIGGK-NH2, the isolated mass is reported as 19 mg and the isolated yield is reported as 4.0%.
In the case of FITC-6Ahx-RQHGLRHFYNRRRRS-NH2, the isolated mass is reported as 17 mg and the isolated yield is reported as 3.3%.
FITC-6Ahx-RTTRRWKRWFKFRKRKGEKR-NH2 showed an isolated mass of 17 mg and an isolated yield of 2.6%.
With FITC-6Ahx-KLWKKKELLQRAEKKKKIKK-NH2 the isolated mass was 52 mg and the isolated yield was 8.5%.
Substance FITC-6Ahx-IKRKRPFVLKKKRGRKRRRI-NH2 has an isolated mass of 78 mg and an isolated yield of 12.5%.

Same assay, conditions: whole synthesis, scale 0.2 mm
FITC-6Ahx-MWQPRRPWPRVPWRW-NH2 showed an isolated mass of 15 mg and an isolated yield of 2.8%.
